PubChem BioAssay AID1259254 | NCATS, 2017

Screen: 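Genome-wide screen for genes that prevent DNA re-replication in cancer cells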 (primary screen)
System: human HCT116 colorectal cancer cells
Knock-down reagent: single siRNA against human genes
Timing: 3 days
Read-out: 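Nuclei stained with Hoechst and imaged; cell-cycle phase assigned by DNA content; G2 share scaled per plate, non-targeting siRNA 0%, GMNN siRNA 100%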
Reading the numbers: G2 robust z-score and G2 cells, % of GMNN control: higher = more G2 cells, more excess DNA replication; raw share of cells in G2: higher = larger share of cells with G2 DNA content
Call rule: 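Active siRNAs have a G2 robust z of 5 or more median absolute deviations over the median, which in these data means about 38% or higher of GMNN control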
The deposit covers about 59,000 reagents; shown is an unselected part. Over the whole deposit, about 1,550 (2.6%) were called active. 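G2 share is only a proxy for re-replication; each gene was hit by three separate siRNAs, and active genes were retested.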 Raw values are not corrected between plates. The numbers tell different reagents against one gene apart. Reagent sequences are not shown. The record does not give: the amount of reagent.

Target gene,reagent,G2 robust z-score,"G2 cells, % of GMNN control",raw share of cells in G2 (%),Call
CEP112 (centrosomal protein 112),1,-0.566,-1.01,2.44,inactive
CEP112 (centrosomal protein 112),2,0.517,6.61,5.97,inactive
CEP112 (centrosomal protein 112),3,1.58,14.1,7.67,inactive
PYROXD2 (pyridine nucleotide-disulphide oxidoreductase domain 2),1,0.623,7.35,6.55,inactive
PYROXD2 (pyridine nucleotide-disulphide oxidoreductase domain 2),2,0.801,8.6,6.01,inactive
PYROXD2 (pyridine nucleotide-disulphide oxidoreductase domain 2),3,0.882,9.17,5.19,inactive
SWSAP1 (SWIM-type zinc finger 7 associated protein 1),1,-0.533,-0.785,2.29,inactive
SWSAP1 (SWIM-type zinc finger 7 associated protein 1),2,2.07,17.5,10.8,inactive
SWSAP1 (SWIM-type zinc finger 7 associated protein 1),3,-0.476,-0.381,2.98,inactive
PCDH7 (protocadherin 7),1,-0.312,0.773,3.46,inactive
PCDH7 (protocadherin 7),2,0.636,7.45,8.02,inactive
PCDH7 (protocadherin 7),3,-0.25,1.21,5.24,inactive
GOLPH3 (golgi phosphoprotein 3),1,-0.179,1.71,5.33,inactive
GOLPH3 (golgi phosphoprotein 3),2,3.79,29.6,17.9,inactive
GOLPH3 (golgi phosphoprotein 3),3,-0.698,-1.94,2.18,inactive
MPP7 (MAGUK p55 scaffold protein 7),1,-0.156,1.87,6.17,inactive
MPP7 (MAGUK p55 scaffold protein 7),2,-1.06,-4.48,3.56,inactive
MPP7 (MAGUK p55 scaffold protein 7),3,1.14,11,7.2,inactive
ZBP1 (Z-DNA binding protein 1),1,-0.746,-2.28,3.5,inactive
ZBP1 (Z-DNA binding protein 1),2,0.253,4.75,6.38,inactive
ZBP1 (Z-DNA binding protein 1),3,-0.0545,2.58,3.08,inactive
PIK3R3 (phosphoinositide-3-kinase regulatory subunit 3),1,0.292,5.02,7.15,inactive
PIK3R3 (phosphoinositide-3-kinase regulatory subunit 3),2,0.138,3.94,6.62,inactive
PIK3R3 (phosphoinositide-3-kinase regulatory subunit 3),3,-0.0482,2.63,4.52,inactive
ETFRF1 (electron transfer flavoprotein regulatory factor 1),1,-0.969,-3.85,2.54,inactive
ETFRF1 (electron transfer flavoprotein regulatory factor 1),2,3.69,28.9,11.8,inactive
ETFRF1 (electron transfer flavoprotein regulatory factor 1),3,-0.361,0.431,3.22,inactive
MB21D2 (Mab-21 domain containing 2),1,0.51,6.56,5.35,inactive
MB21D2 (Mab-21 domain containing 2),2,-0.223,1.4,4.3,inactive
MB21D2 (Mab-21 domain containing 2),3,0.558,6.89,5.04,inactive
CASC3 (CASC3 exon junction complex subunit),1,-0.123,2.1,5.81,inactive
CASC3 (CASC3 exon junction complex subunit),2,-0.0187,2.84,5.31,inactive
CASC3 (CASC3 exon junction complex subunit),3,-0.568,-1.03,2.79,inactive
TATDN1 (TatD DNase domain containing 1),1,1.31,12.2,8.16,inactive
TATDN1 (TatD DNase domain containing 1),2,0.379,5.64,5.13,inactive
TATDN1 (TatD DNase domain containing 1),3,-0.595,-1.22,2.03,inactive
TSPO (translocator protein),1,-0.0647,2.51,4.93,inactive
TSPO (translocator protein),2,-0.972,-3.87,3.4,inactive
TSPO (translocator protein),3,-0.115,2.16,5.84,inactive
UMAD1 (UBAP1-MVB12-associated (UMA) domain containing 1),1,4.31,33.3,15.3,inactive
UMAD1 (UBAP1-MVB12-associated (UMA) domain containing 1),2,-0.235,1.31,4.61,inactive
UMAD1 (UBAP1-MVB12-associated (UMA) domain containing 1),3,0.00428,3,4.23,inactive

Entries listed so far whose gene name starts with S or s (3):
Target gene,reagent,G2 robust z-score,"G2 cells, % of GMNN control",raw share of cells in G2 (%),Call
SWSAP1 (SWIM-type zinc finger 7 associated protein 1),1,-0.533,-0.785,2.29,inactive
SWSAP1 (SWIM-type zinc finger 7 associated protein 1),2,2.07,17.5,10.8,inactive
SWSAP1 (SWIM-type zinc finger 7 associated protein 1),3,-0.476,-0.381,2.98,inactive

The results go on:
Target gene,reagent,G2 robust z-score,"G2 cells, % of GMNN control",raw share of cells in G2 (%),Call
LINC00304 (long independently transcribed non-coding RNA 304),1,-0.516,-0.663,3.4,inactive
LINC00304 (long independently transcribed non-coding RNA 304),2,0.311,5.16,5.04,inactive
LINC00304 (long independently transcribed non-coding RNA 304),3,-0.554,-0.934,2.98,inactive
TMPRSS13 (transmembrane serine protease 13),1,-0.794,-2.62,4.49,inactive
TMPRSS13 (transmembrane serine protease 13),2,2.67,21.7,11.6,inactive
TMPRSS13 (transmembrane serine protease 13),3,-0.355,0.472,4.44,inactive
EXOSC2 (exosome component 2),1,-0.616,-1.37,5.82,inactive
EXOSC2 (exosome component 2),2,-0.292,0.914,4.46,inactive
EXOSC2 (exosome component 2),3,-1.01,-4.11,2.46,inactive
NPTN (neuroplastin),1,2.98,24,17,inactive
NPTN (neuroplastin),2,-0.405,0.117,4.23,inactive
NPTN (neuroplastin),3,-0.472,-0.354,3.87,inactive
ATP6V1A (ATPase H+ transporting V1 subunit A),1,-1.09,-4.69,3.58,inactive
ATP6V1A (ATPase H+ transporting V1 subunit A),2,-0.971,-3.86,3.48,inactive
ATP6V1A (ATPase H+ transporting V1 subunit A),3,-0.52,-0.692,4.11,inactive
LSR (lipolysis stimulated lipoprotein receptor),1,-1.13,-4.95,3.71,inactive
LSR (lipolysis stimulated lipoprotein receptor),2,-0.422,-0.00334,4.24,inactive
LSR (lipolysis stimulated lipoprotein receptor),3,-0.0462,2.64,4.81,inactive
ATP11C (ATPase phospholipid transporting 11C (ATP11C blood group)),1,-0.796,-2.64,3.32,inactive
ATP11C (ATPase phospholipid transporting 11C (ATP11C blood group)),2,-1.19,-5.38,3.58,inactive
ATP11C (ATPase phospholipid transporting 11C (ATP11C blood group)),3,1.29,12,9.65,inactive
RNF181 (ring finger protein 181),1,1.18,11.2,6.8,inactive
RNF181 (ring finger protein 181),2,0.107,3.72,5.27,inactive
RNF181 (ring finger protein 181),3,0.835,8.84,7.89,inactive
SERTAD4-AS1 (SERTAD4 antisense RNA 1),1,-0.774,-2.48,2.67,inactive
SERTAD4-AS1 (SERTAD4 antisense RNA 1),2,-0.565,-1.01,3.03,inactive
SERTAD4-AS1 (SERTAD4 antisense RNA 1),3,-0.268,1.08,3.49,inactive
GLDN (gliomedin),1,-0.245,1.24,4.41,inactive
GLDN (gliomedin),2,-0.0115,2.89,4.52,inactive
GLDN (gliomedin),3,-0.467,-0.315,4.06,inactive
ZNF883 (zinc finger protein 883),1,0.0157,3.08,4.71,inactive
ZNF883 (zinc finger protein 883),2,-0.556,-0.943,2.64,inactive
ZNF883 (zinc finger protein 883),3,0.183,4.25,4.11,inactive
MYL10 (myosin light chain 10),1,-1.05,-4.4,3.63,inactive
MYL10 (myosin light chain 10),2,-1.22,-5.59,2.57,inactive
MYL10 (myosin light chain 10),3,-0.49,-0.477,4.3,inactive
CCL15 (C-C motif chemokine ligand 15),1,-0.369,0.372,5.13,inactive
CCL15 (C-C motif chemokine ligand 15),2,-1.08,-4.64,2.39,inactive
CCL15 (C-C motif chemokine ligand 15),3,-0.711,-2.03,2.62,inactive
IL19 (interleukin 19),1,1.05,10.3,7.8,inactive
IL19 (interleukin 19),2,0.0989,3.66,5.93,inactive
IL19 (interleukin 19),3,2.32,19.3,9.34,inactive
SUMO3 (small ubiquitin like modifier 3),1,0.325,5.25,7.21,inactive
SUMO3 (small ubiquitin like modifier 3),2,3.33,26.4,14.7,inactive
SUMO3 (small ubiquitin like modifier 3),3,1.36,12.5,7.87,inactive
